This assay can be described thus: qHTS Assay for Lipid Storage Modulators in Drosophila S3 Cells.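 On cell number change: cells counted by Cell Tracker Red CMTPX staining in the red channel.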 The following applies: BODIPY lipid droplet fluorescence, 18-24 h; for cell number change: measured here: cell count max response, cells fed with added oleic acid. In short, it runs like this: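 Drosophila S3 cells got compounds at several concentrations plus oleic acid (400 uM solution). Laser-scanning cytometry with 488 nm excitation read lipid droplets at 500-530 nm and cells at 575-640 nm. Percent activity was relative to 20 uM Triacsin C.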
A general note: qHTS replaces the single test concentration by a dilution series.

[1] abbreviates: measured here: lipid fluorescence (Fed channel) AC50, cells fed with added oleic acid.
[2] abbreviates: measured here: cell number channel AC50, cells fed with added oleic acid.

The list shows a part of the results. Further columns of the screen follow, without active or inactive calls. The list favours compounds with an active or inconclusive main result. The note in brackets gives the kind of curve behind each potency; many fits are weak.

Take `CN(C(=O)C1CCN(c2ncnc3c2nc2n3CCCCC2)CC1)C1CCCCC1`: the cell number change was -32.8%. In addition, under setting [1], the AC50 (usually the midpoint of the concentration-response curve, whichever way the signal moves) was 29.1 µM [falling, single point].
On to `O=C(Cn1ncc2c(=O)oc3ccccc3c21)NCCc1ccsc1`, for which the cell number change came out at 29.3%. In addition, under setting [1], the concentration at half-maximal activity (AC50) was 10.3 µM [rising, partial curve].
On to `Cc1ccc(CNC(=O)CCn2cc(-c3ccc(C)cc3)nc2CCN)cc1`, for which the cell number change worked out at 12.6%. The AC50 under setting [1] is 0.13 µM [falling, full curve, poor fit].
`Cc1cc(/C=C(\C#N)c2nc3ccccc3[nH]2)c(C)n1C`: the cell number change worked out at 17.8%. The AC50 under setting [1] was 1.03 µM [rising, full curve].
As for `CCN(CC(=O)Nc1c(F)cccc1F)C(=O)c1cc2c(cc1Cl)N1CCCCCC1=NS2(=O)=O`, the cell number change was -6.5%.
With `O=C(N/C(=C\c1cccc([N+](=O)[O-])c1)C(=O)N1CCOCC1)c1ccco1`, the cell number change was determined as 44.4%. The AC50 under setting [2] is 9.2 µM [rising, partial curve]. Also, under setting [1], the AC50 is 5.17 µM [rising, full curve].
Consider `Cc1cc(NC(=O)CSc2ccc3c(c2)OCCO3)no1`, for which the cell number change is 19.9%. Also, the AC50 under setting [1] was 0.206 µM [rising, full curve, poor fit].
Consider `Cc1cccc(S(=O)(=O)N2CN(Cc3ccco3)c3nc4ccccc4nc32)c1`, for which the cell number change is -6.7%. Further, the AC50 under setting [1] was 0.461 µM [falling, full curve, poor fit].
Take `COc1ccc(NC(C)=O)cc1C`: the cell number change is -41.3%. The AC50 under setting [2] was 18.4 µM [falling, single point]. The AC50 under setting [1] was 18.4 µM [falling, single point].
Turning to `O=C(c1ccccc1)c1ccc(OC(=O)C2CCCCC2)cc1`, the cell number change was -15.3%. Moreover, under setting [1], the AC50 was 29.1 µM [falling, single point].
Consider `COc1ccc(C(=O)Nc2ccnn2C2CCN(C(=O)CCC(F)(F)F)CC2)cc1`, for which the cell number change was -13.1%.
Turning to `CCc1noc(C)c1C(=O)OC(C)C(=O)Nc1ccc(Cl)cn1` (stereo unspecified), the cell number change stood at 31.2%. Also, under setting [2], the AC50 is 1.03 µM [rising, full curve, poor fit]. Moreover, the AC50 under setting [1] is 2.91 µM [rising, partial curve, poor fit].
Take `O=C(NCCC1=CCCCC1)C(=O)NCC1OCCCN1S(=O)(=O)c1cc(F)ccc1F` (stereo unspecified): the cell number change was -74.7%. In addition, the AC50 under setting [2] was 0.92 µM [falling, full curve].
For `COc1cc(/C=C(/C#N)c2ccc(F)cc2)ccc1OCc1ccc(C(=O)O)o1`, the cell number change is -0.331%. For the same molecule, under setting [1], the AC50 is 6.51 µM [rising, single point].
`COc1cc(OC)c(-c2nc3cnccc3n2C)cc1OC`: the cell number change is 92.3%. In addition, under setting [2], the AC50 is 29.1 µM [rising, single point]. Further, the AC50 under setting [1] is 6.51 µM [falling, single point].
As to `O=C(O)c1ccc2nc3c(nc2c1)-c1ccccc1C3=O`, the cell number change came out at 26.6%. Moreover, the AC50 under setting [2] is 4.11 µM [rising, single point].
In the case of `Cc1cc(C)nc(SC2CC(=O)N(c3ccc(C)c(C)c3)C2=O)n1` (stereo unspecified), the cell number change was -4.95%. In addition, under setting [1], the AC50 is 29.1 µM [rising, single point].
On to `Cc1c(C(=O)C(=O)NCCCn2ccnc2)c2ccccc2n1C`, for which the cell number change is -33.4%. In addition, under setting [2], the half-maximal activity concentration (AC50) is 20.6 µM [falling, single point]. The AC50 under setting [1] was 8.2 µM [falling, partial curve].
Take `COc1ccccc1CNC(=O)c1cccc(-c2ccc(C)c3ccccc23)n1`: the cell number change is 18.9%. In addition, the AC50 under setting [1] is 4.11 µM [rising, partial curve].
`CCC(CC)C(=O)Nc1cccc(S(=O)(=O)c2cccc(NC(=O)C(CC)CC)c2)c1`: the cell number change was found to be 6.77%. Besides, under setting [1], the AC50 was 0.00461 µM [rising, full curve, poor fit].
As for `O=C(CN(C(=O)CNC(=O)c1ccco1)c1cccc(F)c1)NC1CCCCC1`, the cell number change came out at 15.4%.
With `Cc1ccc(NC2=NCC(=O)N2Cc2ccc3c(c2)OCO3)cc1`, the cell number change amounted to 8.53%. Further, the AC50 under setting [1] was 1.84 µM [rising, full curve].
For the molecule `Brc1ccc(COc2ncnc3ccccc23)cc1`, the AC50 by setting is: under setting [2], 5.8 µM [rising, single point]; under setting [1], 5.17 µM [rising, single point].
For the molecule `COc1ccc(N(CC(=O)NC2CC2)S(=O)(=O)c2ccccc2)cc1`, the cell number change is -6.58%.
With `CC(=O)NC(c1ccco1)c1cc(Cl)c2cccnc2c1O` (stereo unspecified), the cell number change worked out at 36.2%. Further, the AC50 under setting [2] was 14.6 µM [rising, single point]. Also, the AC50 under setting [1] was 18.4 µM [rising, partial curve].
In the case of `CCn1cnc2c1c(=O)n(Cc1cccc(Br)c1)c(=O)n2Cc1ccccc1`, the cell number change is 16.1%.
For the molecule `Cc1cccc(-n2c(SCc3cc(=O)n4ccsc4n3)nc3ccccc3c2=O)c1`, the cell number change was determined as 10.5%. Besides, the AC50 under setting [2] is 0.92 µM [rising, partial curve]. For the same molecule, the AC50 under setting [1] was 2.59 µM [rising, partial curve].
Take `COc1ccc(CNC(=O)Cn2cncn2)cc1OC`: the cell number change is 20.9%.
In the case of `Cc1ccc(OCC(=O)Nc2ccc(C(=O)O)cc2NC(=O)COc2ccc(C)c(C)c2)cc1C`, the cell number change was determined as 16.8%. For the same molecule, the AC50 under setting [1] was 29.1 µM [rising, single point].
Regarding `CS(=O)(=O)N1CCCC(C(=O)Nc2ccc(F)cc2F)C1` (stereo unspecified), the cell number change is -61.3%. The AC50 under setting [2] was 29.1 µM [falling, single point]. Moreover, under setting [1], the AC50 was 23.1 µM [falling, single point].
As for `CCCOc1ccccc1NC(=O)c1ccc(N)cc1`, the AC50 by setting is: under setting [2], 0.461 µM [rising, full curve]; under setting [1], 0.58 µM [rising, full curve].
Regarding `COC(=O)C1=CN(CCCN2CCCC2=O)C=C(C(=O)OC)C1c1ccccc1C(F)(F)F`, the cell number change is -17.4%.
For the molecule `O=C(NC(Cc1ccccc1)C(=O)N1CCCCCC1)c1ccccc1` (stereo unspecified), the cell number change is -6.49%. For the same molecule, the AC50 under setting [1] was 1.3 µM [rising, full curve].
`Cc1cc(=O)oc2cc(NC(=O)c3ccccc3OC(F)F)ccc12`: the cell number change was -17.9%. Moreover, the AC50 under setting [1] was 0.58 µM [falling, partial curve, poor fit].
As to `O=C(NC(Cc1ccccc1)C(=O)O)/C(=C/c1ccc([N+](=O)[O-])cc1)NC(=O)c1ccc(Br)o1` (stereo unspecified), the cell number change came out at 32.9%.
Consider `COc1ccc(-c2nc(SCC(=O)N3CCCC3)n[nH]2)cc1`, for which the cell number change is 26.9%. Also, the AC50 under setting [1] is 0.206 µM [rising, partial curve, poor fit].
For `O=C(O)c1cccc(S(=O)(=O)NNc2ccccc2C(F)(F)F)c1`, the cell number change came to 55.1%. In addition, under setting [2], the AC50 is 29.1 µM [rising, single point]. Moreover, the AC50 under setting [1] is 5.17 µM [rising, single point].
Turning to `Cc1ccc2c(c1)c1c3n2CCN(C(=O)Cn2c(-c4ccccc4)noc2=O)C3CCC1` (stereo unspecified), the cell number change is -16.5%.

The values above are taken from PubChem BioAssay AID2685 (National Center for Advancing Translational Sciences (NCATS), 2010).
